Measurements reported in PubChem BioAssay AID652054 (National Center for Advancing Translational Sciences (NCATS), 2013).
In all, about 360,000 compounds went through this assay and about 9,100 (2.5%) were called active. Inconclusive results, whose numbers are uncertain, are shown with a selection of clear calls. Cut-off read from the data, not from the text of the source: active = max response below about -50%; inconclusive = no clear call, values can overlap the other calls; inactive = above that.

Chains of the proteins cited; added tags and fusions are not shown.
UniProt P35462, whole entry, looked up: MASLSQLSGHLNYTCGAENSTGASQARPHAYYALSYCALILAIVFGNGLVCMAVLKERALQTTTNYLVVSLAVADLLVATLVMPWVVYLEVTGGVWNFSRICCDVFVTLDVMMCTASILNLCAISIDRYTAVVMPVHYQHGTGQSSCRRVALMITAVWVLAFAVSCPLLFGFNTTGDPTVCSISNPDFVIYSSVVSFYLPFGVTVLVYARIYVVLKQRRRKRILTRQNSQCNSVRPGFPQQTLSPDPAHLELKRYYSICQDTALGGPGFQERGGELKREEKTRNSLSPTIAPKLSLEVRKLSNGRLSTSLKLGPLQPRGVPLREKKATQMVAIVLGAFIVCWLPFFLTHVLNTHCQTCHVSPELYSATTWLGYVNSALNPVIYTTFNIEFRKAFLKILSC

Target: D(3) dopamine receptor (Homo sapiens) (UniProt P35462)
Assay: qHTS of D3 Dopamine Receptor Antagonist: qHTS
Details: D3R cells, DiscoveRx beta-arrestin luminescence, antagonist mode; stronger effect = lower value
How it was run: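 Cells expressing the human receptor were seeded at 1500 cells/well, incubated overnight at 37 degrees C in 5% CO2, then exposed to library compounds with dopamine controls for 90 minutes at 37 degrees C before luminescent detection.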
% is set by controls: 0 for no effect and ±100 for the full control effect.

Max response, negative = inhibition, inactive:
CCOC(=O)C1(Cc2ccc(OC)cc2)CCN(C(=O)c2ccc3[nH]ccc3c2)CC1 -22.9%
CCN(CC(=O)NCc1cccs1)C(=O)c1ccc([N+](=O)[O-])o1 -2.38%
CN(C)c1ccc(/C=N/NC(=O)c2ccccc2)cc1 -7.69%
COc1ccc(CNC(=O)[C@H](C)NC(=O)C2CCN(C(=O)[C@@H](N)Cc3ccccc3)CC2)cc1 5.42%
CCCCn1c(C(C)NC(=O)CC)nc2ccccc21 (stereo unspecified) 4.43%
Cc1cc(C)cc(C(=O)NCC(=O)OCC(=O)NCC(F)(F)F)c1 7.95%
Nc1nc(SCc2ccccc2Cl)[nH]c(=O)c1-c1ccccc1 44.3%
COC[C@H](NS(=O)(=O)c1ccc(Br)cc1F)[C@@H](O)c1ccccc1 19.8%
CN(CC(=O)Nc1cccc(F)c1)C(=O)c1cccc(S(=O)(=O)N2CCN(c3ccccc3)CC2)c1 -0.238%
Cc1noc(C)c1C(=O)Nc1nc2ccc(F)cc2s1 3.06%
COc1cc(NC(=S)Nc2ccccn2)c(OC)cc1Cl -15.5%
NC(c1csc(NC(=O)Nc2cccc(C(F)(F)F)c2)n1)C1CCCCC1 (stereo unspecified) 13.3%
Cc1ccccc1/C=C1\Sc2ccc(C(=O)N3CCN(c4ccccn4)CC3)cc2N(C)C1=O 4.19%
CC(NC(=O)/C=C/c1cnc2ccccc2n1)C12CC3CC(CC(C3)C1)C2 (stereo unspecified) -12.8%
COc1ccc(/C=N/OCC(=O)NC(c2ccccc2)c2ccccc2)c(OC)c1 21.9%
COC(=O)C1=C(C(=O)OC)[C@@H]2N(Cc3ccccc3)c3ccccc3[C@@]23C[C@@H](C(=O)OC)N(C(=O)c2ccc(Br)cc2)C3=N1 12.8%
Cc1cccc2cc(/C=N/Nc3ccc(C(=O)O)cc3)c(Cl)nc12 24.8%
Cc1cccc(NCc2ccc(O)c3ncccc23)c1C -26.6%
CCOC(=O)c1c(-c2ccc(OC)cc2)csc1/N=C/C1C(=O)CCCC1=O -4.02%
CC(=O)c1c(C)n(CC(=O)NCc2ccc3c(c2)OCO3)c2ccccc12 3.31%
O=C(NCCN1CCCCC1)c1ccc(=O)oc1 20.1%
O=C(CCN1C(=O)/C(=C/c2ccccc2)SC1=S)NCCCN1CCOCC1 0.121%
CCCCCCNS(=O)(=O)c1ccc(OC)c(OC)c1 17.1%
COc1ccc(CCC(=O)NNC(=O)Nc2cccc(Cl)c2)cc1 11%
O=C1NC(Cc2ccc(O)cc2)c2nc3cc(F)c(F)cc3c(=O)n2-c2cc3ccccc3cc21 (stereo unspecified) 22.1%

Max response, negative = inhibition, active:
FC(F)(F)c1cnc(NNC(=S)Nc2cccnc2)c(Cl)c1 -66.6%
CCCOc1ccc(F)cc1-c1cc(C(=O)NC2CCCCC2)[nH]n1 -102%
CCCCOc1ccc(-c2nnn(CCC(=O)N3CCOCC3)n2)cc1 -96%
O=C1C=CC(=O)C(C2=C3C(=O)N(CCc4ccccc4)CC(=O)N3CCC2)=C1 -72.2%
Cc1ccc(OCCNc2cc(N3CCN(CCO)CC3)ccc2[N+](=O)[O-])cc1C -56%
CCOc1cc(CN2CCN(c3cccc(C(F)(F)F)c3)CC2)ccc1O -85.6%
CCCc1[nH]nc2c1C(c1ccc(OCCN3CCOCC3)c(OC)c1)C(C#N)=C(N)O2 (stereo unspecified) -64.3%
Cc1ccc(C(C)C)c(OCCNC(=O)c2cncc(Br)c2)c1 -51.9%
OC(COCc1ccc(Cl)cc1)CN1CCc2ccccc2C1 (stereo unspecified) -71.9%
Cc1ccc(C)c(N2CCN(CC3CCCCC3)CC2)c1 -56.6%

Quoted at random: 3 compounds from above.
Max response, negative = inhibition, active:
Cc1ccc(OCCNc2cc(N3CCN(CCO)CC3)ccc2[N+](=O)[O-])cc1C -56%
Cc1ccc(C(C)C)c(OCCNC(=O)c2cncc(Br)c2)c1 -51.9%
OC(COCc1ccc(Cl)cc1)CN1CCc2ccccc2C1 (stereo unspecified) -71.9%

Next part:

Max response, negative = inhibition, inconclusive:
O=C1c2cccc(Sc3ccccc3)c2C(=O)c2c(Sc3ccccc3)cccc21 -44.5%
COc1ccc(CN2CCN(C(=O)c3ccc(F)cc3)CC2)c(OC)c1 -36.6%
O=C(NNC(=S)Nc1ccccc1)c1ccco1 -35.5%
O=C(O)CN1C(=O)/C(=C\c2cccc(OCc3ccc(Cl)cc3Cl)c2)SC1=S -32.7%
COCCN(C)Cc1cn(-c2ccc(F)cc2F)nc1-c1ccccc1C -35%
CN(C)c1ccc(N=Cc2nc(-c3ccccc3)oc2OC(=O)c2cccc(Br)c2)cc1 -32.2%
CCOc1ccc(NC(=O)Nc2ccc3c(c2)nnn3C)cc1 -46.5%
O=C(C1=C[C@H](c2ccc(Br)cc2)C[C@H](OCc2ccc(CO)cc2)O1)N1CCOCC1 -42.1%
COCCn1c(=O)c2cc3c(=O)n(CCOC)c(=O)c3cc2c1=O -40%
Cc1ccc(C(C#N)c2ccc3c(C(F)(F)F)cc(C(F)(F)F)nc3n2)cc1 (stereo unspecified) -43.6%
Cn1ccc(=Nc2ccc(NC(=O)c3ccc(N=c4ccn(C)c5ccc([N+](=O)[O-])cc45)cc3)cc2)cc1 -34.6%
CCCOc1ccc(C2NC(=O)NC2=O)cc1 (stereo unspecified) -40.6%
CNC(=O)OCc1cccc(COC(=O)NC)n1 -48.8%
Cc1c(Cc2ccc3c(c2)OCO3)sc(NC(=O)c2cccc3ccccc23)c1C(N)=O -31%
COC(=O)C[C@H]1C[C@@H]2c3cc(NC(=O)CN(C)C)ccc3O[C@@H]2[C@H](CO)O1 -38.9%
O=S(=O)(NCCN1CCCC1)c1ccc(C(F)(F)F)cc1 -36.8%
CCC(=O)Nc1nnc(SCc2ccc(F)cc2)s1 -41.3%
COc1ccc(C2CC(c3ccccc3Cl)=NN2c2ccc(S(N)(=O)=O)cc2)cc1 (stereo unspecified) -31.7%
S=C(Nc1ccccc1)N1CCN(C(=S)c2ccccc2)CC1 -40.7%
CN(C)CCCN(Cc1ccccc1)C(=S)Nc1ccc(SC(F)F)cc1 -34.6%
CCOc1ccccc1N1CCN(C(=O)C(Sc2ccccc2)c2ccccc2)CC1 (stereo unspecified) -32.9%
Cc1ccc(S(=O)(=O)N2CCN(CCOc3ccccc3)CC2)cc1 -31.5%
COCCCNC(=O)C[C@H]1C[C@H](C(=O)N2CCCCC2)[C@@]2(C)c3[nH]c4ccc(Cl)cc4c3CCN2C1=O -35.3%
COc1cc(C(=O)NCC(c2ccco2)N2CCCC2)ccc1OCc1c(C)noc1C (stereo unspecified) -35.8%
COCCn1c(SCC(=O)c2ccccc2)nc2c(c1=O)SCC2 -45.1%
O=S(=O)(c1ccccc1)N1CCC(O)(CSc2ccccc2)CC1 -32.3%
COc1ccccc1Nc1nc(C)cc(=O)[nH]1 -33.9%
C=CCN1C(=O)C(O)(CC(=O)c2ccc(N)cc2)c2ccccc21 (stereo unspecified) -44.3%
OCC1OC(n2ccc3c(NO)ncnc32)C(O)C1O (stereo unspecified) -32.1%
CSc1nnc(N2C(=O)C(O)=C(C(=O)c3ccco3)C2c2ccc(F)cc2)s1 (stereo unspecified) -37.9%
CCCC(=O)Nc1ccc(NC(=S)NC(=O)c2cccs2)cc1 -37.5%
c1cc(-c2cn(C[C@H]3CC[C@@H]([C@@H]4CC[C@H](Cn5cc(-c6ccsc6)nn5)O4)O3)nn2)cs1 -32%
O=CNc1cc(-c2ccoc2)cn2c(-c3ccc(F)cc3)cnc12 -30.8%
O=c1c2ccccc2c(/C=N/c2ncn[nH]2)c(O)n1Cc1ccccc1 -32.9%
O=C(NCC1CCN(Cc2cccc(Cl)c2)CC1)C1CCCN(c2ncnc3c2nc2n3CCCCC2)C1 (stereo unspecified) -35.4%
Cc1ccccc1N1CCN(CCCN2C(=O)C3CCCCN3C2=O)CC1 (stereo unspecified) -47.5%
CC1(C(=O)Nc2cccc3c2CCCC3)CCN1C(=O)C1(c2ccc(Cl)cc2)CC1 (stereo unspecified) -36.3%
O=C(O)CCN(Cc1ccccc1)S(=O)(=O)c1ccc(Cl)cc1F -33.6%
O=C(NCCCN1CCN(c2ccccc2F)CC1)C1CCN(S(=O)(=O)c2cccs2)CC1 -42.4%
CCOC(=O)[C@@H]1[C@H]2COc3ccccc3[C@@H]2N2C(=O)N(c3ccccc3)C(=O)[C@]12C -41.3%
Cc1ccc(S(=O)(=O)N(CC(=O)NCc2ccncc2)C2CCCCC2)cc1 -46%
O=C(Cn1cncc1-c1ccc([N+](=O)[O-])cc1)Nc1cccc2ccccc12 -33.2%
C=CCNCCCOc1ccc(C(C)(C)c2ccccc2)cc1 -34.3%
OC(COc1ccccc1)CN1CCN(c2ncccn2)CC1 (stereo unspecified) -44.6%
Cc1c(Cl)cccc1N(CC(=O)O)S(C)(=O)=O -31.4%
CCn1cc(CNC(=O)c2cc(-c3ccccc3OC)nc3ccccc23)c(C)n1 -45.7%
CN(C(=O)c1ccc2c(=O)n3c(nc2c1)CCCCC3)c1cccc(Cl)c1 -33.3%
CCN(CC)CC(=O)N1c2ccccc2Sc2ccc(Cl)cc21 -33.4%
O=C(NCc1n[nH]c(=S)n1-c1ccc(Cl)c(Cl)c1)c1ccco1 -36.3%
COc1ccc(OC)c(NC(=O)COC(=O)CNC(=O)c2ccc(OC)c(OC)c2)c1 -41%
COc1ccc2c(c1OC)C[N+]1([O-])CCc3cc4c(cc3C1C2)OCO4 (stereo unspecified) -39.2%
